Measured values reported in the supplement of paper PMC8728848.
This is one part of the list.

Experiments:
Assay in all cases: glycan array binding signal (z-score within array); higher = stronger binding
Conditions in all cases: glycan notation: IUPAC condensed, linker removed
[1] = target: Gal3S(b1-4)[Fuc(a1-3)]GlcNAc
Method in brief: (§1)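 From the Consortium for Functional Glycomics database, 3228 arrays were curated, keeping only those whose protein sequence was available. Binding is given as a within-array Z-score averaged across arrays sharing a protein sequence and across linkers. Negative Z-scores can be read as non-binding.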

[2] = target: Gal3S(b1-4)[Fuc(a1-3)]GlcNAc6S
Method in brief: as §1

Gal3S4S(b1-4)GlcNAc = target: Gal3S4S(b1-4)GlcNAc
Method in brief: as §1

Gal3S6S(b1-4)GlcNAc = target: Gal3S6S(b1-4)GlcNAc
Method in brief: as §1

Gal3S6S(b1-4)GlcNAc6S = target: Gal3S6S(b1-4)GlcNAc6S
Method in brief: as §1

Gal4S(b1-4)GlcNAc = target: Gal4S(b1-4)GlcNAc
Method in brief: as §1

Gal4S6S(b1-4)GlcNAc = target: Gal4S6S(b1-4)GlcNAc
Method in brief: as §1

Gal6P(b1-4)GlcNAc = target: Gal6P(b1-4)GlcNAc
Method in brief: as §1

Gal6S(b1-3)GlcNAc = target: Gal6S(b1-3)GlcNAc
Method in brief: as §1

Gal6S(b1-3)GlcNAc6S = target: Gal6S(b1-3)GlcNAc6S
Method in brief: as §1

Gal6S(b1-4)Glc = target: Gal6S(b1-4)Glc
Method in brief: as §1

Gal6S(b1-4)Glc6S = target: Gal6S(b1-4)Glc6S
Method in brief: as §1

Gal6S(b1-4)GlcNAc = target: Gal6S(b1-4)GlcNAc
Method in brief: as §1

GalNAc(a1-3)Gal = target: GalNAc(a1-3)Gal
Method in brief: as §1

GalNAc(a1-3)GalNAc = target: GalNAc(a1-3)GalNAc
Method in brief: as §1

[3] = target: GalNAc(a1-3)GalNAc(b1-3)Gal(a1-4)Gal(b1-4)Glc
Method in brief: as §1

[4] = target: GalNAc(a1-3)GalNAc(b1-3)Gal(a1-4)Gal(b1-4)GlcNAc
Method in brief: as §1

GalNAc(b1-3)Gal = target: GalNAc(b1-3)Gal
Method in brief: as §1

[5] = target: GalNAc(b1-3)Gal(a1-4)Gal(b1-4)GlcNAc
Method in brief: as §1

[6] = target: GalNAc(b1-3)Gal(a1-4)Gal(b1-4)GlcNAc(b1-3)Gal(b1-4)Glc
Method in brief: as §1

[7] = target: GalNAc(b1-3)Gal(a1-6)Gal(b1-4)Glc
Method in brief: as §1

GalNAc(b1-3)GalNAc = target: GalNAc(b1-3)GalNAc
Method in brief: as §1

GalNAc(b1-3)GlcNAc = target: GalNAc(b1-3)GlcNAc
Method in brief: as §1

GalNAc(b1-4)Gal(b1-4)Glc = target: GalNAc(b1-4)Gal(b1-4)Glc
Method in brief: as §1

GalNAc(b1-4)GlcNAc = target: GalNAc(b1-4)GlcNAc
Method in brief: as §1

[8] = target: GalNAc(b1-4)GlcNAc(b1-2)Man
Method in brief: as §1

[9] = target: GalNAc(b1-4)GlcNAc(b1-2)Man(a1-3)[GalNAc(b1-4)GlcNAc(b1-2)Man(a1-6)]Man(b1-4)GlcNAc(b1-4)GlcNAc
Method in brief: as §1

[10] = target: GalNAc(b1-4)GlcNAc(b1-3)GalNAc(b1-4)GlcNAc
Method in brief: as §1

GalNAc(b1-4)GlcNAc6S = target: GalNAc(b1-4)GlcNAc6S
Method in brief: as §1

GalNAc(b1-6)GalNAc = target: GalNAc(b1-6)GalNAc
Method in brief: as §1

GalNAc3S(b1-4)GlcNAc = target: GalNAc3S(b1-4)GlcNAc
Method in brief: as §1

GalNAc3S(b1-4)GlcNAc3S = target: GalNAc3S(b1-4)GlcNAc3S
Method in brief: as §1

[11] = target: GalNAc3S(b1-4)[Fuc(a1-3)]GlcNAc
Method in brief: as §1

GalNAc4S6S(b1-4)GlcNAc = target: GalNAc4S6S(b1-4)GlcNAc
Method in brief: as §1

GalNAc6S(b1-4)GlcNAc = target: GalNAc6S(b1-4)GlcNAc
Method in brief: as §1

Glc(a1-4)Glc = target: Glc(a1-4)Glc
Method in brief: as §1

[12] = target: Glc(a1-4)Glc(a1-4)Glc(a1-4)Glc
Method in brief: as §1

Glc(a1-6)Glc(a1-6)Glc = target: Glc(a1-6)Glc(a1-6)Glc
Method in brief: as §1

B1: PX14351B-bth-512-36-512 (Bacteroides thetaiotaomicron) (protein)
chain: ASETQQWKTLEDTRSALMGVYGLTRAALADNNTHWICGDLRKGDFTVYKRSDLQAVSDNELNKPYDLLKKVSNWRRFYAVINAASVFMEKAPRTVELDRSYSEQNLKYDIAQVRALRAFAYFYMVRIWGDVPLVTYSYDNGTFPSMPRTDAQTVLSYAKAELLTAIEDLPYQYGTQTNLYYGSYGAQWQGKLFNKLSAYSVLAHICAWQGNYAEAETYSAFIIDHASEINAKYTSIADLTSETGLFYSNASVKGSRILGFNFAHNDNEATQSGHLEQLTLAYPLVQKSYPEIYISKDSLFSIFTNFDDLRFGIIDTIKYSSYYVQNLNEETPVFSKIKIIQDGSAKDNDFGVFGSSIVFTRLEDITLLRAEALCALNRSTEAVSYLNMIRTNRGLREVSFKKDFGNNRESLIAEIFEERRRELMGEGWRWYDLVRRQKLMKDNEAFLRLISSGGIYWPVSEDIITANSQIEQNEFWK
- glycan array binding signal (z-score) [1]: -0.025
- glycan array binding signal (z-score) [2]: -0.168
- glycan array binding signal (z-score) (Gal3S4S(b1-4)GlcNAc): 0.128
- glycan array binding signal (z-score) (Gal3S6S(b1-4)GlcNAc): 0.221
- glycan array binding signal (z-score) (Gal3S6S(b1-4)GlcNAc6S): -0.391
- glycan array binding signal (z-score) (Gal4S(b1-4)GlcNAc): -0.256
- glycan array binding signal (z-score) (Gal4S6S(b1-4)GlcNAc): -0.338
- glycan array binding signal (z-score) (Gal6P(b1-4)GlcNAc): -0.297
- glycan array binding signal (z-score) (Gal6S(b1-3)GlcNAc): -0.276
- glycan array binding signal (z-score) (Gal6S(b1-3)GlcNAc6S): -0.195
- glycan array binding signal (z-score) (Gal6S(b1-4)Glc): 0.182
- glycan array binding signal (z-score) (Gal6S(b1-4)Glc6S): 0.987
- glycan array binding signal (z-score) (Gal6S(b1-4)GlcNAc): -0.212
- glycan array binding signal (z-score) (GalNAc(a1-3)Gal): 0.243
- glycan array binding signal (z-score) (GalNAc(a1-3)GalNAc): -0.236
- glycan array binding signal (z-score) [3]: -0.24
- glycan array binding signal (z-score) [4]: -0.27
- glycan array binding signal (z-score) (GalNAc(b1-3)Gal): -0.237
- glycan array binding signal (z-score) [5]: -0.161
- glycan array binding signal (z-score) [6]: -0.096
- glycan array binding signal (z-score) [7]: -0.324
- glycan array binding signal (z-score) (GalNAc(b1-3)GalNAc): -0.004
- glycan array binding signal (z-score) (GalNAc(b1-3)GlcNAc): -0.256
- glycan array binding signal (z-score) (GalNAc(b1-4)Gal(b1-4)Glc): -0.134
- glycan array binding signal (z-score) (GalNAc(b1-4)GlcNAc): -0.183
- glycan array binding signal (z-score) [8]: -0.064
- glycan array binding signal (z-score) [9]: 0.664
- glycan array binding signal (z-score) [10]: 0.118
- glycan array binding signal (z-score) (GalNAc(b1-4)GlcNAc6S): -0.306
- glycan array binding signal (z-score) (GalNAc(b1-6)GalNAc): -0.059
- glycan array binding signal (z-score) (GalNAc3S(b1-4)GlcNAc): -0.173
- glycan array binding signal (z-score) (GalNAc3S(b1-4)GlcNAc3S): -0.185
- glycan array binding signal (z-score) [11]: -0.329
- glycan array binding signal (z-score) (GalNAc4S6S(b1-4)GlcNAc): -0.242
- glycan array binding signal (z-score) (GalNAc6S(b1-4)GlcNAc): -0.158
- glycan array binding signal (z-score) (Glc(a1-4)Glc): -0.324
- glycan array binding signal (z-score) [12]: -0.295
- glycan array binding signal (z-score) (Glc(a1-6)Glc(a1-6)Glc): -0.359
